Reference: US20260207585A1, “METHODS AND COMPOSITIONS FOR THE TREATMENT OF PARKINSON'S DISEASE, HUNTINGTON'S DISEASE, AMYOTROPHIC LATERAL SCLEROSIS, AND LEARNING DISORDERS” (Cedars-Sinai Medical Center, priority 2022, published 2026)

Test system: soluble fraction of brain homogenates
Experiment: Mass spectrometry proteomics of brain homogenates with IPA
Type: in vivo
Conditions: ETP69-treated vs DMSO-treated AD+ mice
Protocol: The results included levodopa (L-dopa), a naturally occurring product that is also a drug for the management of Parkinson's motor symptoms.
Mass spectrometry (MS) analysis on the soluble fraction of brain homogenates extracted from the […] WT and neurodegenerative (AD) mice cohort was performed (DMSO-treated WT mice: n=8; ETP69-treated WT mice: n=7; DMSO-treated AD^+ mice: n=6; ETP69-treated AD^+ n=6).
The effects of ETP69 on the molecular pathways related to neuroprotection and cognitive function was assessed.

In the case of `CN1C(=O)[C@@]23C[C@](C)(C#N)[C@H](c4ccc5c(c4)OCO5)N2C(=O)[C@]1(C)SS3` (racemic) [ETP69, Rac-(3S,6S,7S,8aS)-6-(benzo[d][1,3]dioxol-5-yl)-2,3,7-trimethyl-1,4-dioxohexahydro-6H-3,8a-epidithiopyrrolo[1,2-a]pyrazine-7-carbonitrile], the “IPA upstream regulator activation z score, BDNF” value is reported as 2.42, the “IPA upstream regulator activation z score, GABA” value is reported as 2.50 and the “IPA upstream regulator activation z score, Rictor” value is reported as 3.59.
